# Reference: paper doi:10.1101/2022.10.25.513763
# Protein sequences, listed by entry. Tags and fused reporters are not part of them.
# UniProt Q01939, whole entry: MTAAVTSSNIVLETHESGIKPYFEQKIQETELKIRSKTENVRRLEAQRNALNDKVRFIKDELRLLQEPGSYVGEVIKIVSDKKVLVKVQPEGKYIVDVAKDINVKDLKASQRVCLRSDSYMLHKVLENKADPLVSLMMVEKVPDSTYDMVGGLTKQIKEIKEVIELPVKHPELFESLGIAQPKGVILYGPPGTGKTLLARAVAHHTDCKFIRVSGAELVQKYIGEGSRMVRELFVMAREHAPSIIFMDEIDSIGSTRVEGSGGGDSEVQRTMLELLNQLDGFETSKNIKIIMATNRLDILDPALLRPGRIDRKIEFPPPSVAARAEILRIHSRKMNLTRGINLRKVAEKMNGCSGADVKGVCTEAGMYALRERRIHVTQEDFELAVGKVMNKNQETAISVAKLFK
# Results are given in words; binding and its absence hold for the method and conditions named. In cells and extracts the contact can be indirect. Some entries that bind do so weakly or less than the wild type. Where a sequence is shown, tags or fusion partners need not be part of it.
# T1: FLAG-tagged Rpt1 (S. cerevisiae) (UniProt P33299)
# T1 sequence: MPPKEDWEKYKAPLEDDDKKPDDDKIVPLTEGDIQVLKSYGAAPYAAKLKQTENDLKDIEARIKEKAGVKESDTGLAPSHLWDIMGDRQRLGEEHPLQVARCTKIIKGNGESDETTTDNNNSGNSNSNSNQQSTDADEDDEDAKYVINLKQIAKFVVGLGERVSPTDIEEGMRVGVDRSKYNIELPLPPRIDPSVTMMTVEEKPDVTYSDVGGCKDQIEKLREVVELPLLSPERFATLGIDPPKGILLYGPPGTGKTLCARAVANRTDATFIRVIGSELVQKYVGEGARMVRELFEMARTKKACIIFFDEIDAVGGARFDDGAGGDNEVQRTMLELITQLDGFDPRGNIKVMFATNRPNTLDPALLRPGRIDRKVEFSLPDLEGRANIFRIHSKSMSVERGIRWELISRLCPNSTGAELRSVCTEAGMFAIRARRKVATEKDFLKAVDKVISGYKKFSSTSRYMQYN
# T2: His6-tagged Rpt3 (S. cerevisiae), P33298
# T2 chain: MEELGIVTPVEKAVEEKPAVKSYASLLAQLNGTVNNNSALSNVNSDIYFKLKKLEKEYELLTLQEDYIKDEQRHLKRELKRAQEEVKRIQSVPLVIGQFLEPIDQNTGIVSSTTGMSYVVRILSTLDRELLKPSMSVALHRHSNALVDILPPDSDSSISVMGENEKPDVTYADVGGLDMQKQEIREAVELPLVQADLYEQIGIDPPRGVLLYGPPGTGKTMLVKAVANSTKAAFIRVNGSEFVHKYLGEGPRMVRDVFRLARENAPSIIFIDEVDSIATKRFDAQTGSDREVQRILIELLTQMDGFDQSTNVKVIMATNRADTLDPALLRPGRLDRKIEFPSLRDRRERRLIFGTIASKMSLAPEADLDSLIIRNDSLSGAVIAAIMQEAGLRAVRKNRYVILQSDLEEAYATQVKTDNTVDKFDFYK
# T3: Rpn11 harboring TeV-ProA affinity tag (S. cerevisiae), P43588
# T3 chain: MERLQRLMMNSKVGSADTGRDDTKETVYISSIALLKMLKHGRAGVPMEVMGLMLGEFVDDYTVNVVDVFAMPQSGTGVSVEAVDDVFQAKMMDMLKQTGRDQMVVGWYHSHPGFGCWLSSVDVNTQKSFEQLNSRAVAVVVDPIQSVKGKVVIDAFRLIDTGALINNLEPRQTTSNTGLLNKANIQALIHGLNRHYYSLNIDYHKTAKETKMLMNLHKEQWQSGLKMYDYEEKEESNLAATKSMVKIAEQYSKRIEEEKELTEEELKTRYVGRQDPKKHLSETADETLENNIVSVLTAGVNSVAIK
# What was measured:
# [1] = molecular target: T1, FLAG-tagged Rpt1 (S. cerevisiae); assay: co-IP
# [2] = molecular target: T2, His6-tagged Rpt3 (S. cerevisiae), P33298; assay: pull-down; conditions: remark: other sources report otherwise
# [3] = molecular target: T3, Rpn11 harboring TeV-ProA affinity tag …; assay: pull-down; conditions: remark: other sources report otherwise
molecule,measurement,setting,value
Rpt6 (from UniProt Q01939 1-405),binding,[1],binds
"Nas2, P40555 1-220 (protein) MEEEELSKLLANVKIDPSLTSRISQIDSFKLSELMVLKTDIETQLEAYFSVLEQQGIGMDSALVTPDGYPRSDVDVLQVTMIRKNVNMLKNDLNHLLQRSHVLLNQHFDNMNVKSNQDARRNNDDQAIQYTIPFAFISEVVPGSPSDKADIKVDDKLISIGNVHAANHSKLQNIQMVVMKNEDRPLPVLLLREGQILKTSLTPSRNWNGRGLLGCRIQEL",binding,[2],binds
"Nas2 (endogenous, yeast), P40555 1-220 (protein) MEEEELSKLLANVKIDPSLTSRISQIDSFKLSELMVLKTDIETQLEAYFSVLEQQGIGMDSALVTPDGYPRSDVDVLQVTMIRKNVNMLKNDLNHLLQRSHVLLNQHFDNMNVKSNQDARRNNDDQAIQYTIPFAFISEVVPGSPSDKADIKVDDKLISIGNVHAANHSKLQNIQMVVMKNEDRPLPVLLLREGQILKTSLTPSRNWNGRGLLGCRIQEL",binding,[3],no binding
